Source: article PMC7136618, “Defective nucleotide-dependent assembly and membrane fusion in Mfn2 CMT2A variants improved by Bax” (Life Science Alliance, 2020)
Changes are numbered by the printed parent chain. Numbers in names are those of the source. No constants are given. Whether binding was seen depends on the method and setting. Some entries that bind do so weakly or less than the wild type. Where a sequence is shown, tags or fusion partners need not be part of it.

Assays:
[1] = target: T1, Mfn2^S378P with a C-terminal 3×FLAG tag (UniProt Q80U63); assay: native gel or EMSA; BN-PAGE of isolated mitochondria incubated with 2 mM GTP at 37°C for 30 min before lysis in 1% digitonin; anti-FLAG blot
T1 sequence: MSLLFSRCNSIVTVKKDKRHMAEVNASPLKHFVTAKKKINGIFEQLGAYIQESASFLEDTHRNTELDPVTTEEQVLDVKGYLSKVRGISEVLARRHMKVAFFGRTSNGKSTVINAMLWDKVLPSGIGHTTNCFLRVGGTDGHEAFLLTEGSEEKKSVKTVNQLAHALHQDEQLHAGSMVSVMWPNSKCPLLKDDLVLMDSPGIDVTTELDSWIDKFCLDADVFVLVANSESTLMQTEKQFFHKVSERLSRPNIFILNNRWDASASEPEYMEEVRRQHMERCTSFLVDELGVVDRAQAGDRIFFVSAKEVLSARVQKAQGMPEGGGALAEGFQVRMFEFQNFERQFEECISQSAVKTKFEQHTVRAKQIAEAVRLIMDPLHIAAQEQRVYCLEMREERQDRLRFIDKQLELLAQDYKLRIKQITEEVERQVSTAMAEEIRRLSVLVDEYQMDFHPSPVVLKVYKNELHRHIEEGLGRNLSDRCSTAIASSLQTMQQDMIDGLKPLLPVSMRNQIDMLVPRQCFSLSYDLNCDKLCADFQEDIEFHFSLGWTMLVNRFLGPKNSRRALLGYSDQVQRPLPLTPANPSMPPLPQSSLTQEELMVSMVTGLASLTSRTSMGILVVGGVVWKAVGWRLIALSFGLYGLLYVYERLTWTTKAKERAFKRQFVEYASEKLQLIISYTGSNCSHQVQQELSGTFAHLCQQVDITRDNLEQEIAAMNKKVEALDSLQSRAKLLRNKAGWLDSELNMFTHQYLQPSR

[2] = target: T1, Mfn2^S378P with a C-terminal 3×FLAG tag; assay: native gel or EMSA; BN-PAGE of isolated mitochondria incubated with 2 mM GMPPNP, with or without 1 μM purified recombinant Bax, at 37°C for 30 min before lysis in 1% digitonin; anti-FLAG blot
[3] = target: T2, Mfn2^A383V with a C-terminal 3×FLAG tag (UniProt Q80U63); assay: native gel or EMSA; BN-PAGE of isolated mitochondria incubated with 2 mM GTP at 37°C for 30 min before lysis in 1% digitonin; anti-FLAG blot
T2 sequence: T1 sequence with P378S, A383V

[4] = target: T2, Mfn2^A383V with a C-terminal 3×FLAG tag; assay: native gel or EMSA; BN-PAGE of isolated mitochondria incubated with 2 mM GMPPNP, with or without 1 μM purified recombinant Bax, at 37°C for 30 min before lysis in 1% digitonin; anti-FLAG blot
[5] = target: T3, Mfn2^Q386P with a C-terminal 3×FLAG tag (UniProt Q80U63); assay: native gel or EMSA; BN-PAGE of isolated mitochondria incubated with 2 mM GTP at 37°C for 30 min before lysis in 1% digitonin; anti-FLAG blot
T3 sequence: T1 sequence with P378S, Q386P

[6] = target: T3, Mfn2^Q386P with a C-terminal 3×FLAG tag; assay: native gel or EMSA; BN-PAGE of isolated mitochondria incubated with 2 mM GMPPNP, with or without 1 μM purified recombinant Bax, at 37°C for 30 min before lysis in 1% digitonin; anti-FLAG blot
[7] = target: T4, Mfn2^C390F with a C-terminal 3×FLAG tag (UniProt Q80U63); assay: native gel or EMSA; BN-PAGE of isolated mitochondria incubated with 2 mM GTP at 37°C for 30 min before lysis in 1% digitonin; anti-FLAG blot
T4 sequence: T1 sequence with P378S, C390F

[8] = target: T4, Mfn2^C390F with a C-terminal 3×FLAG tag; assay: native gel or EMSA; BN-PAGE of isolated mitochondria incubated with 2 mM GMPPNP, with or without 1 μM purified recombinant Bax, at 37°C for 30 min before lysis in 1% digitonin; anti-FLAG blot

B1: Mfn2^S378P with a C-terminal 3×FLAG tag (natural protein, UniProt Q80U63 1-757, looked up)
chain: T1 sequence
notes: Mitofusin 2 (Mfn2) with the CMT2A-associated substitution S378P; CMT2A-associated (patient) substitution; also called Mfn2-FLAG variant S378P; source: Mfn2-null MEFs, retroviral transduction, clonal population; isolated mitochondria, lysed; not shown: 3×FLAG, C-terminal, kept
[1]
  binding: binds
[2]
  binding: binds

B2: Mfn2^A383V with a C-terminal 3×FLAG tag (natural protein, UniProt Q80U63 1-757, looked up)
chain: T1 sequence with P378S, A383V
notes: Mitofusin 2 (Mfn2) with the CMT2A-associated substitution A383V; CMT2A-associated (patient) substitution; also called Mfn2-FLAG variant A383V; source: Mfn2-null MEFs, retroviral transduction, clonal population; isolated mitochondria, lysed; not shown: 3×FLAG, C-terminal, kept
[3]
  binding: binds
[4]
  binding: binds

B3: Mfn2^Q386P with a C-terminal 3×FLAG tag (natural protein, UniProt Q80U63 1-757, looked up)
chain: T1 sequence with P378S, Q386P
notes: Mitofusin 2 (Mfn2) with the CMT2A-associated substitution Q386P; CMT2A-associated (patient) substitution; also called Mfn2-FLAG variant Q386P; source: Mfn2-null MEFs, retroviral transduction, clonal population; isolated mitochondria, lysed; not shown: 3×FLAG, C-terminal, kept
[5]
  binding: binds
[6]
  binding: binds

B4: Mfn2^C390F with a C-terminal 3×FLAG tag (natural protein, UniProt Q80U63 1-757, looked up)
chain: T1 sequence with P378S, C390F
notes: Mitofusin 2 (Mfn2) with the CMT2A-associated substitution C390F; CMT2A-associated (patient) substitution; also called Mfn2-FLAG variant C390F; source: Mfn2-null MEFs, retroviral transduction, clonal population; isolated mitochondria, lysed; not shown: 3×FLAG, C-terminal, kept
[7]
  binding: binds
[8]
  binding: binds
